Data reported in patent US20060068118A1, “Silicon-containing treatments for solid substrates” (priority 2003, published 2006).

Assays:
[1] = Bromphenol Blue (BPB) Extraction Method, modified Dow Corning test 0824
[2] = BPB Direct Stain test after cold water rinse

**Q.** With CCCCCCCCCCCCCCCCCC[N+](C)(C)CCC[Si](OC)(OC)OC.[Cl-] [AEM, N,N-dimethyl-N-Octadecyl-3-(trimethoxysilyl)propanaminium chloride] as the compound, how does the “% BPB Extraction” value ([1]; Example 7, OSB, brushed on, 135 mg/ft^2 AEM Actives then 90 mg/ft^2 Na4SiO4 Actives, water rinse) read?
**A.** Its value is 54%.

**Q.** And the “% BPB Extraction” value ([1]; Example 7, OSB, brushed on, 135 mg/ft^2 AEM Actives then 180 mg/ft^2 Na4SiO4 Actives, water rinse)?
**A.** The value was 49%.

**Q.** What about the “% BPB Extraction” value ([1]; Example 7, OSB, brushed on, 135 mg/ft^2 AEM Actives then 270 mg/ft^2 Na4SiO4 Actives, water rinse) of the same compound?
**A.** The value was 62%.

**Q.** And the “% BPB Extraction, OSB Brush” value ([1]; Example 9, OSB, washed and cleaned with a brush)?
**A.** Its value is 40%.

**Q.** And the “% BPB Extraction, OSB No Brush” value ([1]; Example 9, OSB, washed, no brush)?
**A.** Its value is 35%.

**Q.** What about the “% BPB Extraction, Decking Brush” value ([1]; Example 9, decking, washed and cleaned with a brush) of the same compound?
**A.** Its value is 4%.

**Q.** What about the “% BPB Extraction, Decking No Brush” value ([1]; Example 9, decking, washed with cold water, no brush) of the same compound?
**A.** Its value is 10%.

**Q.** And the “% BPB Extraction, Shingle Brush” value ([1]; Example 9, shingle, washed and cleaned with a brush)?
**A.** The value was 4%.

**Q.** And the “% BPB Extraction, Shingle No Brush” value ([1]; Example 9, shingle, washed, no brush)?
**A.** The value was 2%.

**Q.** And the “% BPB Extraction, Wood Brush” value ([1]; Example 9, wood, washed and cleaned with a brush)?
**A.** Its value is 30%.

**Q.** And the “% BPB Extraction, Wood No Brush” value ([1]; Example 9, wood, washed, no brush)?
**A.** Its value is 30%.

**Q.** What about the “OSB % BPB Ext” value ([1]; Example 10, OSB, AEM 1.25 mg/inch^2, rinsed, measured wet) of the same compound?
**A.** The value was 41%.

**Q.** What about the “Decking % BPB Ext” value ([1]; Example 10, decking, AEM 1.25 mg/inch^2, rinsed, measured wet) of the same compound?
**A.** The value was 19%.

**Q.** What about the “Shingle % BPB Ext” value ([1]; Example 10, shingle, AEM 1.25 mg/inch^2, rinsed, measured wet) of the same compound?
**A.** The value was 11%.

**Q.** What about the “BPB color on the shingle” value ([2]; Example 1, 1% agent alone sprayed on asphalt roofing shingle, immediately rinsed in cold water) of the same compound?
**A.** Its value is “no BPB color”.

**Q.** What about the “adherence to substrate after water washing” value ([2]; Example 2, agent spray followed immediately by potassium methyl siliconate spray, rinsed with copious water) of the same compound?
**A.** Its value is “adhered to the substrate and remained there after the copious water washing”.

**Q.** With CCCCCCCCCCCCCCCCCC[N+](C)(C)CCC[Si](OC)(OC)OC.[Cl-] [Sample 1, N,N-dimethyl-N-Octadecyl-3-(trimethoxysilyl)propanaminium chloride] as the compound, how does the “OSB % BPB ext.” value ([1]; Example 4, OSB, AA 1.25 mg/inch^2) read?
**A.** The value was 46%.

**Q.** What about the “decking % BPB ext.” value ([1]; Example 4, decking, AA 1.25 mg/inch^2) of the same compound?
**A.** The value was 3%.

**Q.** And the “shingle % BPB ext.” value ([1]; Example 4, shingle, AA 1.25 mg/inch^2, spray, cold water rinse)?
**A.** Its value is 3%.

**Q.** And the “siding % BPB ext.” value ([1]; Example 4, AA 1.25 mg/inch^2)?
**A.** Its value is 4%.

**Q.** What about the “wood % BPB ext.” value ([1]; Example 4, wood, AA 1.25 mg/inch^2) of the same compound?
**A.** Its value is 37%.

**Q.** What about the “OSB % BPB ext.” value ([1]; Example 5, OSB, AA 1.25 mg/inch^2) of the same compound?
**A.** The value was 36%.

**Q.** What about the “decking % BPB ext.” value ([1]; Example 5, decking, AA 1.25 mg/inch^2) of the same compound?
**A.** Its value is 3%.

**Q.** And the “siding % BPB ext.” value ([1]; Example 5, AA 1.25 mg/inch^2)?
**A.** The value was 4%.

**Q.** And the “wood % BPB ext.” value ([1]; Example 5, wood, AA 1.25 mg/inch^2)?
**A.** Its value is 37%.

**Q.** What about the “% BPB Extraction” value ([1]; shingle, AA Actives 0.05%, room temperature, rinsed) of the same compound?
**A.** The value was 3%.

**Q.** What about the “% BPB Extraction” value ([1]; shingle, AA Actives 1%, room temperature, rinsed) of the same compound?
**A.** Its value is 8%.
